According to patent US20100028414A1, “COMBINATION OF TYROSINE KINASE INHIBITOR AND HER-2/NEU FOR CANCER THERAPY” (priority 2004, published 2010):
Some of these results come from one statement about several compounds together.

What was measured:
[1] = test system: BT474 human breast cancer cells; test: In vitro growth inhibition assay ([3H] thymidine incorporation), BT474; format: cell-based; conditions: suboptimal doses chosen from dose range curves (data not shown)
Method: (§1) The antiproliferative effect of vaccine induced anti HER2 polyclonal antibodies (pAb) in combination with Lapatinib was evaluted on human breast cancer cells overexpressing the HER2/neu molecule (BT474 and SKBR3 cells) using the [^3H] thymidine incorporation method. Briefly, 10e4 cells were seeded in 200 μl, in triplicate, in 96-w plates and incubated for 72 h at 37° C. in • 1) medium; • 2) medium containing Lapatinib alone (0.01 μM); • 3) medium containing pAb alone (50 μg/ml); • 4) medium containing pre-immune pAb (TA2021) (50 μg/ml); • 5) a combination of (2) Lapatinib (0.01 μM ) and (3) pAb (50 μg/ml); or • 6) a combination of (2) Lapatinib (0.01 μM ) and (4) pre-immune pAb (TA2021) (50 μg/ml).
(§2) 1 μCi of [^3H] Thymidine (5 Ci/mmol; Amersham) was added for an additional 24 h after which cells were harvested by trypsinisation onto filter plates and the incorporated radioactivity was counted in a beta counter. Results were expressed in cpm and the percentage of growth inhibition was calculated referring to the medium.

[2] = test system: SKBR3 human breast cancer cells; test: In vitro growth inhibition assay ([3H] thymidine incorporation), SKBR3; format: cell-based; conditions: suboptimal doses chosen from dose range curves (data not shown)
Method: as §1, §2

Structure (SMILES): CS(=O)(=O)CCNCc1ccc(-c2ccc3ncnc(Nc4ccc(OCc5cccc(F)c5)c(Cl)c4)c3c2)o1 [lapatinib, N-{3-Chloro-4-[(3-fluorobenzyl)oxy]phenyl}-6-[5-({[2-(methanesulphonyl)ethyl]amino}methyl)-2-furyl]-4-quinazolmamine]
- percentage of growth inhibition [1]: 10 to 30%
- percentage of growth inhibition [2]: 10 to 30%
